Data taken from patent US20210348152A1 (TECHNION RESEARCH AND DEVELOPMENT FOUNDATION, published 2021).
No constants are given. Whether binding was seen depends on the method and setting. In cells and extracts the contact can be indirect. Some entries that bind do so weakly or less than the wild type. For some assays here: Tags and fused reporters may be left off the sequences shown.

Assays:
[1] = biological target: T1, p105-HA (UniProt P19838 1-968, limits assumed); test: co-immunoprecipitation (anti-FLAG) from HEK293T cells, western blot (FIG. 1B)
T1 construct: Co-expressed with FLAG-tagged KPC1 species in HEK293T cells and detected with anti-NF-κB1 after anti-FLAG immunoprecipitation; also called NF-κB1 p105; NF-kB1 p105; not shown: HA tag
T1 sequence (looked up): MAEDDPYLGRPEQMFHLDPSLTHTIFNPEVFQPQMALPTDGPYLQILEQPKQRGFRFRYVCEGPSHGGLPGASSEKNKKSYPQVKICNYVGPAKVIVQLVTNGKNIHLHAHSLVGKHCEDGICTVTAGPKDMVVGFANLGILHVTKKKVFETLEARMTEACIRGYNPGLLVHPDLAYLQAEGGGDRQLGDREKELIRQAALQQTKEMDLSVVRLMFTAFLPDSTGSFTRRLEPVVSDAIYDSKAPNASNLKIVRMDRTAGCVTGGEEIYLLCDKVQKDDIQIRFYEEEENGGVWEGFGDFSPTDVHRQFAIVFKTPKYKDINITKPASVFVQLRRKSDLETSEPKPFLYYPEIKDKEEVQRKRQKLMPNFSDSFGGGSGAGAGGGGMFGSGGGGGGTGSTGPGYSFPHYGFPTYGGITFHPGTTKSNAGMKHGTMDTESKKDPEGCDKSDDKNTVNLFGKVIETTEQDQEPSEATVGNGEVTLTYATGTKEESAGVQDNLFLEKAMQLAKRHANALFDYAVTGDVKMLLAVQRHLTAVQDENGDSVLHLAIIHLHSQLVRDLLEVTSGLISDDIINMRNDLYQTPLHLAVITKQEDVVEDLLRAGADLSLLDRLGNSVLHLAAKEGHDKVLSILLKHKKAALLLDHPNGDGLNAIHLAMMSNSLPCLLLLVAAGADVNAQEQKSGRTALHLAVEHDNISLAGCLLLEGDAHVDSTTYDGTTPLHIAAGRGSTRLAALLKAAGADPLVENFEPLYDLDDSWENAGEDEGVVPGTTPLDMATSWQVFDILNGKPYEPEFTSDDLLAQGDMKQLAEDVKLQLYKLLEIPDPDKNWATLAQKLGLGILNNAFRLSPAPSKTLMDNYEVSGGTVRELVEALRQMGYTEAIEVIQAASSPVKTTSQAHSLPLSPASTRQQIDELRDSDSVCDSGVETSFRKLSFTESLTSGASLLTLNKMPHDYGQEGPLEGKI

[2] = biological target: T1, p105-HA; test: co-immunoprecipitation (anti-FLAG) from HEK293T cells, western blot (FIG. 2B)
[3] = biological target: T1, p105-HA; test: co-immunoprecipitation (anti-FLAG) from HEK293T cells, western blot (FIG. 3B)

B1: KPC1 (full-length, wild type, FLAG-tagged) (enzyme)
chain: MASKGAGMSFSRKSYRLTSDAEKSRVTGIVQEKLLNDYLNRIFSSSEHAPPAATSRKPLNFQNLPEHLDQLLQVDNEEEESQGQVEGRLGPSTVVLDHTGGFEGLLLVDDDLLGVIGHSNFGTIRSTTCVYKGKWLYEVLISSQGLMQIGWCTISCRFNQEEGVGDTHNSYAYDGNRVRKWNVTTTNYGKAWAAGDIVSCLIDLDDGTLSFCLNGVSLGTAFENLSRGLGMAYFPAISLSFKESVAFNFGSRPLRYPVAGYRPLQDPPSADLVRAQRLLGCFRAVLSVELDPVEGRLLDKESSKWRLRGQPTVLLTLAHIFHHFAPLLRKVYLVEAVLMSFLLGIVEKGTPTQAQSVVHQVLDLLWLFMEDYEVQDCLKQLMMSLLRLYRFSPIVPDLGLQIHYLRLTIAILRHEKSRKFLLSNVLFDVLRSVVFFYIKSPLRVEEAGLQELIPTTWWPHCSSREGKESTEMKEETAEERLRRRAYERGCQRLRKRIEVVEELQVQILKLLLDNKDDNGGEASRYIFLTKFRKFLQENASGRGNMPMLCPPEYMVCFLHRLISALRYYWDEYKASNPHASFSEEAYIPPQVFYNGKVDYFDLQRLGGLLSHLRKTLKDDLASKANIVIDPLELQSTAMDDLDEDEEPAPAMAQRPMQALAVGGPLPLPRPGWLSSPTLGRANRFLSTAAVSLMTPRRPLSTSEKVKVRTLSVEQRTREDIEGSHWNEGLLLGRPPEEPEQPLTENSLLEVLDGAVMMYNLSVHQQLGKMVGVSDDVNEYAMALRDTEDKLRRCPKRRKDILAELTKSQKVFSEKLDHLSRRLAWVHATVYSQEKMLDIYWLLRVCLRTIEHGDRTGSLFAFMPEFYLSVAINSYSALKNYFGPVHSMEELPGYEETLTRLAAILAKHFADARIVGTDIRDSLMQALASYVCYPHSLRAVERIPEEQRIAMVRNLLAPYEQRPWAQTNWILVRLWRGCGFGYRYTRLPHLLKTKLEDANLPSLQKPCPSTLLQQHMADLLQQGPDVAPSFLNSVLNQLNWAFSEFIGMIQEIQQAAERLERNFVDSRQLKVCATCFDLSVSLLRVLEMTITLVPEIFLDWTRPTSEMLLRRLAQLLNQVLNRVTAERNLFDRVVTLRLPGLESVDHYPILVAVTGILVQLLVRGPASEREQATSVLLADPCFQLRSICYLLGQPEPPAPGTALPAPDRKRFSLQSYADYISADELAQVEQMLAHLTSASAQAAAASLPTSEEDLCPICYAHPISAVFQPCGHKSCKACINQHLMNNKDCFFCKTTIVSVEDWEKGANTSTTSSAA
[1]
  binding: binds

B2: KPC1Δ1-967 (FLAG-tagged) (enzyme)
chain: WILVRLWRGCGFGYRYTRLPHLLKTKLEDANLPSLQKPCPSTLLQQHMADLLQQGPDVAPSFLNSVLNQLNWAFSEFIGMIQEIQQAAERLERNFVDSRQLKVCATCFDLSVSLLRVLEMTITLVPEIFLDWTRPTSEMLLRRLAQLLNQVLNRVTAERNLFDRVVTLRLPGLESVDHYPILVAVTGILVQLLVRGPASEREQATSVLLADPCFQLRSICYLLGQPEPPAPGTALPAPDRKRFSLQSYADYISADELAQVEQMLAHLTSASAQAAAASLPTSEEDLCPICYAHPISAVFQPCGHKSCKACINQHLMNNKDCFFCKTTIVSVEDWEKGANTSTTSSAA
[2]
  binding: binds
[1]
  binding: binds

B3: KPC1ΔCC domain (FLAG-tagged) (enzyme)
chain: MASKGAGMSFSRKSYRLTSDAEKSRVTGIVQEKLLNDYLNRIFSSSEHAPPAATSRKPLNFQNLPEHLDQLLQVDNEEEESQGQVEGRLGPSTVVLDHTGGFEGLLLVDDDLLGVIGHSNFGTIRSTTCVYKGKWLYEVLISSQGLMQIGWCTISCRFNQEEGVGDTHNSYAYDGNRVRKWNVTTTNYGKAWAAGDIVSCLIDLDDGTLSFCLNGVSLGTAFENLSRGLGMAYFPAISLSFKESVAFNFGSRPLRYPVAGYRPLQDPPSADLVRAQRLLGCFRAVLSVELDPVEGRLLDKESSKWRLRGQPTVLLTLAHIFHHFAPLLRKVYLVEAVLMSFLLGIVEKGTPTQAQSVVHQVLDLLWLFMEDYEVQDCLKQLMMSLLRLYRFSPIVPDLGLQIHYLRLTIAILRHEKSRKFLLSNVLFDVLRSVVFFYIKSPLRVEEAGLQELIPTTWWPHCSSREGKESTEMKEETAEERLRRRAYERGCQRLRKRIEVVEELQVQILKLLLDNKDDNGGEASRYIFLTKFRKFLQENASGRGNMPMLCPPEYMVCFLHRLISALRYYWDEYKASNPHASFSEEAYIPPQVFYNGKVDYFDLQRLGGLLSHLRKTLKDDLASKANIVIDPLELQSTAMDDLDEDEEPAPAMAQRPMQALAVGGPLPLPRPGWLSSPTLGRANRFLSTAAVSLMTPRRPLSTSEKVKVRTLSVEQRTREDIEGSHWNEGLLLGRPPEEPEQPLTENSLLEVLDGAVMMYNLSVHQQLGKMVGVSDDVNEYAMALRDTEDKLRRCPKRRKDILAELTKSQKVFSEKLDHLSRRLAWVHATVYSQEKMLDIYWLLRVCLRTIEHGDRTGSLFAFMPEFYLSVAINSYSALKNYFGPVHSMEELPGYEETLTRLAAILAKHFADARIVGTDIRDSLMQALASYVCYPHSLRAVERIPEEQRIAMVRNLLAPYEQRPWAQTNWILVRLWRGCGFGYRYTRLPHLLKTKLEDANLPSLQKPCPSTLLQQHMADLLQQGPDVAPSFLNSVLNQLNWAFVDSRQLKVCATCFDLSVSLLRVLEMTITLVPEIFLDWTRPTSEMLLRRLAQLLNQVLNRVTAERNLFDRVVTLRLPGLESVDHYPILVAVTGILVQLLVRGPASEREQATSVLLADPCFQLRSICYLLGQPEPPAPGTALPAPDRKRFSLQSYADYISADELAQVEQMLAHLTSASAQAAAASLPTSEEDLCPICYAHPISAVFQPCGHKSCKACINQHLMNNKDCFFCKTTIVSVEDWEKGANTSTTSSAA
[2]
  binding: binds

B4: WILVRLW-KPC1 Δ 1-1253 (enzyme)
chain: WILVRLWCPICYAHPISAVFQPCGHKSCKACINQHLMNNKDCFFCKTTIVSVEDWEKGANTSTTSSAA
[3]
  binding: binds
